Some of the results follow.
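Further: competitive profiling in live THP-1 cells: cysteine peptides tagged with an iodoacetamide desthiobiotin (IA-DTB) probe, intensity after compound treatment relative to DMSO-treated cells.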

Sequences of proteins named here, by UniProt entry; tags and fusion partners are left off. A change or cut given only in a name is not applied to a line headed by its entry.
UniProt Q9Y490: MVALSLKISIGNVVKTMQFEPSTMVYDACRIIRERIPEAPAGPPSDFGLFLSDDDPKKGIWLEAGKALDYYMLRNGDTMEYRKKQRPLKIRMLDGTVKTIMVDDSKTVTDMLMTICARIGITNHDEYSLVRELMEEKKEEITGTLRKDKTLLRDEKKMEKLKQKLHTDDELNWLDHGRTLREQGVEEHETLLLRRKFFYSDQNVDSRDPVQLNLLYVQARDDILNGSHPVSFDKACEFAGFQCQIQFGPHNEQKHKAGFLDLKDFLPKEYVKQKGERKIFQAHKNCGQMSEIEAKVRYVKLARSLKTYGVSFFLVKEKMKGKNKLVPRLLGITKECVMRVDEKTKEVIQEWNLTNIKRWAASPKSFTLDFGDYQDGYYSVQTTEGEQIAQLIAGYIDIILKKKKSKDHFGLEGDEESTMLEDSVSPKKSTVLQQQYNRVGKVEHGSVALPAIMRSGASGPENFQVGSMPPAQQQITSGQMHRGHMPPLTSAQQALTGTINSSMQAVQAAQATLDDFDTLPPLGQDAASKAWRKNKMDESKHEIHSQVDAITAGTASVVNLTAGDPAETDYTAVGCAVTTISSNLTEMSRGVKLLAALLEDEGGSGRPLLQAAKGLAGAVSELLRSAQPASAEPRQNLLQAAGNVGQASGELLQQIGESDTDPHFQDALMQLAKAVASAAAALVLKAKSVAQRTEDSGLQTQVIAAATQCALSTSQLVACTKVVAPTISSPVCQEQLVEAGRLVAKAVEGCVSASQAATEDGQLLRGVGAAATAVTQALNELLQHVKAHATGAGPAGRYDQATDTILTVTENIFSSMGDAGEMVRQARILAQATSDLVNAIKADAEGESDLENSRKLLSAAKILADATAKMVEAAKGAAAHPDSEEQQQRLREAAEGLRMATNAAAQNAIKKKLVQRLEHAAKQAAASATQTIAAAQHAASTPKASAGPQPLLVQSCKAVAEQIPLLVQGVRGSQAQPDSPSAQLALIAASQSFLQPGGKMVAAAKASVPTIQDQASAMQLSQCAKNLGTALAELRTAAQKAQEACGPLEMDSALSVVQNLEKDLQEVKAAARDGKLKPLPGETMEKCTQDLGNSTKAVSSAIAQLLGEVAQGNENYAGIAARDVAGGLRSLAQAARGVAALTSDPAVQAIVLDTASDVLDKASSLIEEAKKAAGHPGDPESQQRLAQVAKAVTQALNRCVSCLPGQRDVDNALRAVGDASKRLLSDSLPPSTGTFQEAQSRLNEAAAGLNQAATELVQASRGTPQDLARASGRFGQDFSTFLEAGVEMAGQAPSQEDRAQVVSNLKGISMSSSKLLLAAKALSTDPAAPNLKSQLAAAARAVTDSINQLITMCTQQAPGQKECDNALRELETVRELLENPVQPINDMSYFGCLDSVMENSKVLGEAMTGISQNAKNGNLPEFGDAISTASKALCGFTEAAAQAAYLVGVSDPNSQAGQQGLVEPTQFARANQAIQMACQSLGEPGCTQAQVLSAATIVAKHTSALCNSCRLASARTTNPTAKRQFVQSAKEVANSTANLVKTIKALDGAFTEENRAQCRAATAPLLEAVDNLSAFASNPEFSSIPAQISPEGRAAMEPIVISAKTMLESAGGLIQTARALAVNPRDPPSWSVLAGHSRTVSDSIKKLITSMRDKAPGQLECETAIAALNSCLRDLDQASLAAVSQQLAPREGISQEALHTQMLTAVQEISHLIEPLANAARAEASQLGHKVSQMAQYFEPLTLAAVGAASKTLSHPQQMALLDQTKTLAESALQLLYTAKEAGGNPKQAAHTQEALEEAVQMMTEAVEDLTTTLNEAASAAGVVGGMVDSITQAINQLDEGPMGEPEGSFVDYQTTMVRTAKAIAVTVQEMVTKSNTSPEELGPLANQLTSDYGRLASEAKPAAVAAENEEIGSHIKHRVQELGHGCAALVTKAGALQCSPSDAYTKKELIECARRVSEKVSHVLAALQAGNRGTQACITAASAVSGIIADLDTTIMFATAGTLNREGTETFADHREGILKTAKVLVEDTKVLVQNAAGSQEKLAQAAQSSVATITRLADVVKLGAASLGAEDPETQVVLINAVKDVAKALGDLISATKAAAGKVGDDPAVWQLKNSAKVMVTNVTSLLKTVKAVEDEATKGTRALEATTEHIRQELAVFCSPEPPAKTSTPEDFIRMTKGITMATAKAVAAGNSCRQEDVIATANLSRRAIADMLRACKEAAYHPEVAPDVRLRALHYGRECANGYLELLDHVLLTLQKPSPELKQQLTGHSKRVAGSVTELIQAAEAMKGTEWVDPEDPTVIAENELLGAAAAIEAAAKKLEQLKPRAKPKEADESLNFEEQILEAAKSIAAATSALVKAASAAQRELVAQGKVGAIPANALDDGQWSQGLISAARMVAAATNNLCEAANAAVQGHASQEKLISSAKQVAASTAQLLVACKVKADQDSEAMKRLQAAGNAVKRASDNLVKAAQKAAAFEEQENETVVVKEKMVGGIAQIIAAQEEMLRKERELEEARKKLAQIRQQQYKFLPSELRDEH
UniProt Q96J01: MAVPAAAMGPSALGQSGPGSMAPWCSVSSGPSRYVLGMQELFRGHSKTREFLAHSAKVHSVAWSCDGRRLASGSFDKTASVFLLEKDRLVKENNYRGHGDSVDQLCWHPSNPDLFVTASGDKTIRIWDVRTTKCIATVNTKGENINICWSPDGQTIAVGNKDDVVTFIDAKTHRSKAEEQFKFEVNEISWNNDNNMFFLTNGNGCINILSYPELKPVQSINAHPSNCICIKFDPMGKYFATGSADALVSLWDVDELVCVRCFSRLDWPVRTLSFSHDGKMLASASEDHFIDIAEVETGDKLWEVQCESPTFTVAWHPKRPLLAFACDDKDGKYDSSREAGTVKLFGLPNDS
UniProt Q9Y4R8, whole entry, looked up: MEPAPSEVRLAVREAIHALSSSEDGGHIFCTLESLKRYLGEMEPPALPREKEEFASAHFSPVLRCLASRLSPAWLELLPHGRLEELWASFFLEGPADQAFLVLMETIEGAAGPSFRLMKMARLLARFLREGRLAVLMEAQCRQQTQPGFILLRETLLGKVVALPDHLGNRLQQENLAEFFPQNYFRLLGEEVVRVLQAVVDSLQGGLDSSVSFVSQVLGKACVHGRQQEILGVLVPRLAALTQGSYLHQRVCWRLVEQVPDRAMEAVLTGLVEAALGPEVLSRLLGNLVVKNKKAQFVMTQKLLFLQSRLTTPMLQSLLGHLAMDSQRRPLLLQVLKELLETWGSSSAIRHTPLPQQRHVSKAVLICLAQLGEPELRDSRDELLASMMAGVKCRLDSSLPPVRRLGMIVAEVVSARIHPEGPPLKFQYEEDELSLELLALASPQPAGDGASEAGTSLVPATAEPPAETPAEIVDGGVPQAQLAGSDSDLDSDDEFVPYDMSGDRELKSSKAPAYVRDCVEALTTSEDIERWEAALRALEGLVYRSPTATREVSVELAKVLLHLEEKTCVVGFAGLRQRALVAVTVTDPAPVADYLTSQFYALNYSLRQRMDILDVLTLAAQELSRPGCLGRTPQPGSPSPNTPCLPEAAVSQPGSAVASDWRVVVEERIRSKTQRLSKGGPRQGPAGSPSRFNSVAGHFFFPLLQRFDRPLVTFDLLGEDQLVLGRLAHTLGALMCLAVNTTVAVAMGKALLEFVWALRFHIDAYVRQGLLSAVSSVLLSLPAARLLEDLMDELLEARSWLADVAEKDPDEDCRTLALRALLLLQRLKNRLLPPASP
UniProt P17987, whole entry, looked up: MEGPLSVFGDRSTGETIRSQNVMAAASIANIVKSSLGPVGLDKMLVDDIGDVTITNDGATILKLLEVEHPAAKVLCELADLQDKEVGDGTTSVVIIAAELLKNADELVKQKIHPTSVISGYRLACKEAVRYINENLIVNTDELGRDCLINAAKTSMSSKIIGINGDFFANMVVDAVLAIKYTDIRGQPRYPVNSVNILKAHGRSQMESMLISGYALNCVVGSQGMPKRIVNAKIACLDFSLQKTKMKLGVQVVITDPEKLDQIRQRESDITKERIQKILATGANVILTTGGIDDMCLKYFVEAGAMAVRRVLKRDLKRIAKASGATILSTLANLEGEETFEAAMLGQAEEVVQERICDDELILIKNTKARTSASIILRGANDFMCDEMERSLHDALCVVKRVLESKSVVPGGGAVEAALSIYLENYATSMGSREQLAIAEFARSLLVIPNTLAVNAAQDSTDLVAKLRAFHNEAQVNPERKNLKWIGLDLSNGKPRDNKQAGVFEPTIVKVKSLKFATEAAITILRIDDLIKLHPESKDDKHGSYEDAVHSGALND
UniProt P52888, whole entry, looked up: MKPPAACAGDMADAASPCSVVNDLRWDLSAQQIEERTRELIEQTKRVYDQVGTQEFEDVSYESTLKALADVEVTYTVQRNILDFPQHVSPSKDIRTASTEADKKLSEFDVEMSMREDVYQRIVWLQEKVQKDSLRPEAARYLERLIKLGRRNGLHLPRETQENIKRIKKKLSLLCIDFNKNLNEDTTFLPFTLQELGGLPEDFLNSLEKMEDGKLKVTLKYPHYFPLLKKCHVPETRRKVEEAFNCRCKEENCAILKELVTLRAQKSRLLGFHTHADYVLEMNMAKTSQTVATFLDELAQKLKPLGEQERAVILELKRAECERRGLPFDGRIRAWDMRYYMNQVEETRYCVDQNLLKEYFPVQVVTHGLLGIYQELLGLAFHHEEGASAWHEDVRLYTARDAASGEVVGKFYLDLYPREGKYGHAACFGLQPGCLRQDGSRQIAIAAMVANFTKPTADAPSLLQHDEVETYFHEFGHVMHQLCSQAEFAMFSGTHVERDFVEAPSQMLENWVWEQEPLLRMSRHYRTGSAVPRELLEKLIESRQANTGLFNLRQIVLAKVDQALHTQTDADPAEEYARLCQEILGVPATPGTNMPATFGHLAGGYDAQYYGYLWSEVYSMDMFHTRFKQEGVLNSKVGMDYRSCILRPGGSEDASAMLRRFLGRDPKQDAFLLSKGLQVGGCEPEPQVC
UniProt Q9UGI8: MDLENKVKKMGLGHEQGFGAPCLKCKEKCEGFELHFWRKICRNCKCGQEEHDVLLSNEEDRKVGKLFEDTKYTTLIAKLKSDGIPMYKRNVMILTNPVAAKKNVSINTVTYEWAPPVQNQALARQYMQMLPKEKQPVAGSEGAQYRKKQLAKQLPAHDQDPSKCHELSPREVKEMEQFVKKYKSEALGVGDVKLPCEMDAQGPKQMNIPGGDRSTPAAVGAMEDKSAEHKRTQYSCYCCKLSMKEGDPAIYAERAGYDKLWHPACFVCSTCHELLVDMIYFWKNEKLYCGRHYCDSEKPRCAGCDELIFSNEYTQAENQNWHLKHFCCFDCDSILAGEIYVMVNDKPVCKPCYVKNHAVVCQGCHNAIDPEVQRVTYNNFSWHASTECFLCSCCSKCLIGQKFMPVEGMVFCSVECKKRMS
UniProt P07996: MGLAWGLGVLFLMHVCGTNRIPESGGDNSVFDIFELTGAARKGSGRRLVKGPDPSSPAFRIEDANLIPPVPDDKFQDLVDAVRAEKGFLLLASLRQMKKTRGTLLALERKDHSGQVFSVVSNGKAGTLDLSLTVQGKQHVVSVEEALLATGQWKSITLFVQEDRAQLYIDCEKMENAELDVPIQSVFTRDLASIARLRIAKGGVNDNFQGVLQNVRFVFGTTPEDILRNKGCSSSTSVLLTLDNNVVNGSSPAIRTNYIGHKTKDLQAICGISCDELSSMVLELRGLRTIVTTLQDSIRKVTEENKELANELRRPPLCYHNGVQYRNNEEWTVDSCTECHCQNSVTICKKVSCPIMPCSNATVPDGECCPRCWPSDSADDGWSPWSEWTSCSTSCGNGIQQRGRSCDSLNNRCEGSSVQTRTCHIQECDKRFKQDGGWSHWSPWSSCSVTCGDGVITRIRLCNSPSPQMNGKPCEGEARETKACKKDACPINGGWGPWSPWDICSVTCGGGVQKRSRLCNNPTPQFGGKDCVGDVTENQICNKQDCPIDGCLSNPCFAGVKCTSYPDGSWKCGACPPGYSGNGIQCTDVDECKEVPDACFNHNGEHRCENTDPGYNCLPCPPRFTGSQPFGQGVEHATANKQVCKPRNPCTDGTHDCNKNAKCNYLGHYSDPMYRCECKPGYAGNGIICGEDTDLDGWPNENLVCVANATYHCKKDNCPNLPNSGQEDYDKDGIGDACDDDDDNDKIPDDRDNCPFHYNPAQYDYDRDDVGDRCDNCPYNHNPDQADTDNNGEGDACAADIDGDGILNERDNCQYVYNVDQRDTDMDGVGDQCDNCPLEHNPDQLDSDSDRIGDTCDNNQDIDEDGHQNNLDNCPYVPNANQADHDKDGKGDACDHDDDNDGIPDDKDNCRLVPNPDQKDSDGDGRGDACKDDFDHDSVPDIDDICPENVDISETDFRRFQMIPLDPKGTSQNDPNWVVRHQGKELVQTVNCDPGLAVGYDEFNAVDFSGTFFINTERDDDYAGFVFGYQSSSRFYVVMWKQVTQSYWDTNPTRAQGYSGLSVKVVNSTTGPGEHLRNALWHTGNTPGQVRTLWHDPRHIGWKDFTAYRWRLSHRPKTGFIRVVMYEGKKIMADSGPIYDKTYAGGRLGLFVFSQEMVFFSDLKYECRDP

Compound in this assay: Cc1cc(ccc1-c1ccccc1)C(=O)N1CCCN(CC1)C(=O)CCl [compound 10]
Put plainly: probe-labelled cysteine peptide fold change vs DMSO (competition) (log2 fold change); higher = less target engagement (more negative = stronger competition). The settings on record: 50 µM; THP-1; incubation time: 4 h.
For “TKT_P29401_133_QAFTDVATGSLGQGLGAACGMAYTGK (UniProt P29401)”, the “probe-labelled cysteine peptide fold change” value turned out to be 0.0514.

Turning to “TK1_P04183_66_YSSSFCTHDR (UniProt P04183)”, the “probe-labelled cysteine peptide fold change” value is -0.397.

For the target “TFB1M_Q8WVM0_160_WLENISCR (UniProt Q8WVM0)”, the “probe-labelled cysteine peptide fold change” value is 0.0286.

As for “THOC6_Q86W42_214_EVQTIEVYKHEECSRPHNGR (UniProt Q86W42)”, the “probe-labelled cysteine peptide fold change” value was -0.454.

Regarding “TIA1_P31483_49_MIMDTAGNDPYCFVEFHEHR (UniProt P31483)”, the “probe-labelled cysteine peptide fold change” value worked out at 0.0754.

As to “TKT_P29401_206_CEAFGWHAIIVDGHSVEELCK (UniProt P29401)”, the “probe-labelled cysteine peptide fold change” value was 0.104.

For the target “TLDC1_Q6P9B6_310_HVFGGFASCSWEVKPQFQGDNR (UniProt Q6P9B6)”, the “probe-labelled cysteine peptide fold change” value was 0.215.

In the case of “TGFB1I1_O43294_393_ECFAPFSGGSFFEHEGRPLCENHFHAR (UniProt O43294)”, the “probe-labelled cysteine peptide fold change” value stood at 0.171.

“TLN1_Q9Y490_1023_ASVPTIQDQASAMQLSQCAK (UniProt Q9Y490)”: the “probe-labelled cysteine peptide fold change” value was found to be 0.246.

With “TLN1_Q9Y490_1661_DKAPGQLECETAIAALNSCLR (UniProt Q9Y490)”, the “probe-labelled cysteine peptide fold change” value was -0.397.

For the target “THOC3_Q96J01_106_GHGDSVDQLCWHPSNPDLFVTASGDK (UniProt Q96J01)”, the “probe-labelled cysteine peptide fold change” value was -0.191.

As to “TIMM8A_O60220_62_AEACFVNCVER (UniProt O60220)”, the “probe-labelled cysteine peptide fold change” value worked out at 0.159.

Consider “THAP12_O43422_644_SDLPNPDTLSAELHCWR (UniProt O43422)”, for which the “probe-labelled cysteine peptide fold change” value is -0.122.

For “TEP1_Q99973_692_TVLVYLTDANADRLCPK (UniProt Q99973)”, the “probe-labelled cysteine peptide fold change” value is -0.442.

In the case of “TEX30_Q5JUR7_129_GLICISYPLHHPK (UniProt Q5JUR7)”, the “probe-labelled cysteine peptide fold change” value is -0.134.

For “TELO2_Q9Y4R8_30_EAIHALSSSEDGGHIFCTLESLKR (UniProt Q9Y4R8)”, the “probe-labelled cysteine peptide fold change” value was -0.671.

Take “TCP1_P17987_296_ILATGANVILTTGGIDDMCLK (UniProt P17987)”: the “probe-labelled cysteine peptide fold change” value worked out at 0.145.

Regarding “TEP1_Q99973_2000_ECSLQSLWLLSR (UniProt Q99973)”, the “probe-labelled cysteine peptide fold change” value was -0.118.

Take “THOP1_P52888_321_RAECER (UniProt P52888)”: the “probe-labelled cysteine peptide fold change” value stood at 0.0687.

Regarding “TGFBRAP1_Q8WUH2_700_ALHILVHELQDFAAAEDYCLWCSEGRDPPHR (UniProt Q8WUH2)”, the “probe-labelled cysteine peptide fold change” value was 0.353.

Regarding “TES_Q9UGI8_196_LPCEMDAQGPK (UniProt Q9UGI8)”, the “probe-labelled cysteine peptide fold change” value was -0.318.

Consider “THBS1_P07996_754_IPDDRDNCPFHYNPAQYDYDRDDVGDR (UniProt P07996)”, for which the “probe-labelled cysteine peptide fold change” value worked out at 0.243.

Turning to “TFCP2_Q12800_453_IAQLFSISPCQISQIYK (UniProt Q12800)”, the “probe-labelled cysteine peptide fold change” value is -0.0417.

“TCP1_P17987_357_ICDDELILIK (UniProt P17987)”: the “probe-labelled cysteine peptide fold change” value was 0.0379.

Consider “THBS1_P07996_406_SCDSLNNR (UniProt P07996)”, for which the “probe-labelled cysteine peptide fold change” value came to 0.0245.

For the target “TLE3_Q04726_490_QINTLSHGEVVCAVTISNPTR (UniProt Q04726)”, the “probe-labelled cysteine peptide fold change” value is 0.119.

Regarding “THOP1_P52888_427_YGHAACFGLQPGCLR (UniProt P52888)”, the “probe-labelled cysteine peptide fold change” value is -0.246.

For the target “TEP1_Q99973_2105_TPVLIHSFPACHR (UniProt Q99973)”, the “probe-labelled cysteine peptide fold change” value was -0.291.

Consider TES_Q9UGI8_164_CHELSPR (UniProt Q9UGI8), for which the “probe-labelled cysteine peptide fold change” value was -0.0644.

Regarding “TES_Q9UGI8_29_CEGFELHFWR (UniProt Q9UGI8)”, the “probe-labelled cysteine peptide fold change” value is -0.158.

For the target “TKT_P29401_362+376_EHPDRFIECYIAEQNMVSIAVGCATR (UniProt P29401)”, the “probe-labelled cysteine peptide fold change” value turned out to be 0.408.

Take “TDRD7_Q8NHU6_103_QVNCQMR (UniProt Q8NHU6)”: the “probe-labelled cysteine peptide fold change” value is -0.257.

On to “THOC3_Q96J01_306_LWEVQCESPTFTVAWHPK (UniProt Q96J01)”, for which the “probe-labelled cysteine peptide fold change” value is -0.0798.

Consider “TGFBI_Q15582_49_QHGPNVCAVQK (UniProt Q15582)”, for which the “probe-labelled cysteine peptide fold change” value is -0.687.

Regarding “TELO2_Q9Y4R8_813_SWLADVAEKDPDEDCR (UniProt Q9Y4R8)”, the “probe-labelled cysteine peptide fold change” value is 0.397.

For “TES_Q9UGI8_22_MGLGHEQGFGAPCLK (UniProt Q9UGI8)”, the “probe-labelled cysteine peptide fold change” value was -0.261.

For the target “THOC2_Q8NI27_804_RVPSIDVLCNEFHTPHDAAFFLSR (UniProt Q8NI27)”, the “probe-labelled cysteine peptide fold change” value worked out at 0.0258.

As for “TDRD7_Q8NHU6_333_GCPTVMAGDFK (UniProt Q8NHU6)”, the “probe-labelled cysteine peptide fold change” value was -0.539.

Take “THADA_Q6YHU6_926_VHCITGALQK (UniProt Q6YHU6)”: the “probe-labelled cysteine peptide fold change” value was -0.0508.
